According to paper PMC7768192:
Results are given in words; binding and its absence hold for the method and conditions named. In cells and extracts the contact can be indirect. Some entries that bind do so weakly or less than the wild type. For some assays here: Where a sequence is shown, tags or fusion partners need not be part of it.

T1: GFP-FAM83A, Q86UY5
T1 chain: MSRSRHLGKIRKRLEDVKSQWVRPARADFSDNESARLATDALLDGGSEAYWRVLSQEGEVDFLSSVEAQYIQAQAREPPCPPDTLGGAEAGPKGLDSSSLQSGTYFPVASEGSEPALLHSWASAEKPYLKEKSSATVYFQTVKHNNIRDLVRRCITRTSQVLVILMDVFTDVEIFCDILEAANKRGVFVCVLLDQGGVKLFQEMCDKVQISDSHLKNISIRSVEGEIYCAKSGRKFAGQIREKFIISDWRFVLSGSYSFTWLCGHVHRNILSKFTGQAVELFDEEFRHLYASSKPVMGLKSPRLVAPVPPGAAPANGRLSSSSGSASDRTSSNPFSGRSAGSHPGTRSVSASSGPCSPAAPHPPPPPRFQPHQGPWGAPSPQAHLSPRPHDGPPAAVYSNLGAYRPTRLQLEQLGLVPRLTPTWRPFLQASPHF


Columns and labels:
[1] = target: casein kinase 1α (human (endogenous in U2OS, HCT116 and DLD-1)) (UniProt P48729); test: co-IP; anti-CK1α antibody (1 μg) and Protein G Sepharose on extracts (1 mg protein) of HCT116 and DLD-1 cells (wild-type, FAM83F^-/-, FAM83F^C497A knock-in), untreated or treated with L-CM or Wnt3A-CM for 6 h; Western blot for FAM83F and FAM83G
GFP-FAM83A, Q86UY5 = target: T1, GFP-FAM83A, Q86UY5; test: co-IP; GFP-Trap agarose beads on lysates (1 mg protein) of U2OS Flp/Trx cells expressing GFP-tagged proteins (doxycycline 20 ng/ml, 24 h), 16 h at 4°C, Triton X-100 lysis buffer; Western blot for endogenous CK1α; details: remark: other sources report otherwise

binding [1] | binding (GFP-FAM83A, Q86UY5) | Binder
binds | – | FAM83F^C497A (endogenous knock-in) (protein, UniProt Q8NEG4 1-500) MAESQLNCLDEAHVNEKVTEAQAAFYYCERRRAALEALLGGGEQAYRERLKEEQLRDFLSSPERQALRAAWSPYEDAVPAANARGKSKAKAKAPAPAPAESGESLAYWPDRSDTEVPPLDLGWTDTGFYRGVSRVTLFTHPPKDEKAPHLKQVVRQMIQQAQKVIAVVMDLFTDGDIFQDIVDAACKRRVPVYIILDEAGVKYFLEMCQDLQLTDFRIRNIRVRSVTGVGFYMPMGRIKGTLSSRFLMVDGDKVATGSYRFTWSSSHVDRNLLLLLTGQNVEPFDTEFRELYAISEEVDLYRQLSLAGRVGLHYSSTVARKLINPKYALVSGCRHPPGEMMRWAARQQREAGGNPEGQEEGASGGESAWRLESFLKDLVTVEQVLPPVEPIPLGELSQKDGRMVSHMHRDLKPKSREAPSRNGMGEAARGEAAPARRFSSRLFSRRAKRPAAPNGMASSVSTETSEVEFLTGKRPNENSSADISGKTSPSSAKPSNAVIS
– | no binding | casein kinase 1α, P48729 1-337 (enzyme) MASSSGSKAEFIVGGKYKLVRKIGSGSFGDIYLAINITNGEEVAVKLESQKARHPQLLYESKLYKILQGGVGIPHIRWYGQEKDYNVLVMDLLGPSLEDLFNFCSRRFTMKTVLMLADQMISRIEYVHTKNFIHRDIKPDNFLMGIGRHCNKLFLIDFGLAKKYRDNRTRQHIPYREDKNLTGTARYASINAHLGIEQSRRDDMESLGYVLMYFNRTSLPWQGLKAATKKQKYEKISEKKMSTPVEVLCKGFPAEFAMYLNYCRGLRFEEAPDYMYLRQLFRILFRTLNHQYDYTFDWTMLKQKAAQQAASSSGQGQQAQTPTGKQTDKTKSNMKGF
